In patent US20260263646A1 one finds binding data, which are given here for one molecule.

The chains behind the UniProt entries cited, without tags or fusion partners.
UniProt Q04609: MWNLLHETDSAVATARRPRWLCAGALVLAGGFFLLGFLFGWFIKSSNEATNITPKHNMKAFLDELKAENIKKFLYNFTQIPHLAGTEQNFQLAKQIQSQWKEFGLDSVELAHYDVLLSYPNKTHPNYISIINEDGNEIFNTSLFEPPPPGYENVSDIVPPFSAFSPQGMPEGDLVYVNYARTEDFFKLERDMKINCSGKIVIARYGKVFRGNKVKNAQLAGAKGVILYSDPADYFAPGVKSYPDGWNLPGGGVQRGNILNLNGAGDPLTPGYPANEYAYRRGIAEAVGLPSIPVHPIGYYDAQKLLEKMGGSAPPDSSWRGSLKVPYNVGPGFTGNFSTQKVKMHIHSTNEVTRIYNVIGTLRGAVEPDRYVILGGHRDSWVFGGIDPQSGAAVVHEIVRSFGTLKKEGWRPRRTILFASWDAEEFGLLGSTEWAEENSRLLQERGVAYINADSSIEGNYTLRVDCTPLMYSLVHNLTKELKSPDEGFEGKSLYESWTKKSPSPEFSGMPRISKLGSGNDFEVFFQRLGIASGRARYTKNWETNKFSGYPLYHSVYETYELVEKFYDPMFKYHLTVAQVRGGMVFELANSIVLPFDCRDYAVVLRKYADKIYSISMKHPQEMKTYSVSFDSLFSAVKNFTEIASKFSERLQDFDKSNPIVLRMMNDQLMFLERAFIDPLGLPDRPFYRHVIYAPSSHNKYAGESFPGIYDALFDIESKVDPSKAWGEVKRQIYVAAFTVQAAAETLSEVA

This test has as its target PSMA on LNCaP cells (human) (UniProt Q04609). The experiment in a line: flow cytometry.

These are yes or no findings as the source states them, for the method shown. Some results given as binding are weak or reduced against the parent protein; the word gives no strength.

B1: C2-54TYR (VHH)
VHH: EVQLVESGGGLVQPGGSLTLSCAASRFMISEYSMHWVRQAPGKGLEWVSTINPYGTTDYAESVKGRFTISRDNAKNTLYLQMNSLKPEDTAVYYCDGYGYRGQGTQVTVSS
On to B1, for which the binding result is “binds”.
